Results are given in words; binding and its absence hold for the method and conditions named. Some results given as binding are weak or reduced against the parent protein; the word gives no strength.
Columns and labels:
Assay in all cases: Western blot of purified mutant proteins
[1] = target: T1, PABPN1 point mutant L136S (UniProt Q86U42)
T1 sequence (looked up): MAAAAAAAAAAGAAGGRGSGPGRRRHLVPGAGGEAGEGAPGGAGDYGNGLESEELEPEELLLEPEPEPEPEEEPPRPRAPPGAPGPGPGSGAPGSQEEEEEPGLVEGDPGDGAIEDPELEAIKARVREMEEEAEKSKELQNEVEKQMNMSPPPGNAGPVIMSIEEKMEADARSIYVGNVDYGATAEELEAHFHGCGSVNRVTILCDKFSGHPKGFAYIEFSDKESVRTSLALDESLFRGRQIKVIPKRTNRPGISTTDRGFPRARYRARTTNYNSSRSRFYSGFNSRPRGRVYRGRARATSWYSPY

[2] = target: T2, PABPN1 point mutant K135A (UniProt Q86U42)
T2 sequence (looked up): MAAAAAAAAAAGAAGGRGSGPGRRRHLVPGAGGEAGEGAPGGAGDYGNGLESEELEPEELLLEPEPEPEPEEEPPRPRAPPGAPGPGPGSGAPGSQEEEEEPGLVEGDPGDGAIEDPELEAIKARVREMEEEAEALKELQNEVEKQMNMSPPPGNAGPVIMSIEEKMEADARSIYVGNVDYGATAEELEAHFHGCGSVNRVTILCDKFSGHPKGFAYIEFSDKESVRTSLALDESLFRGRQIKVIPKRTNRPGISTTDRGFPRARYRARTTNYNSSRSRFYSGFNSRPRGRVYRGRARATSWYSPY

[3] = target: T3, PABPN1 point mutant E131A (UniProt Q86U42)
T3 sequence (looked up): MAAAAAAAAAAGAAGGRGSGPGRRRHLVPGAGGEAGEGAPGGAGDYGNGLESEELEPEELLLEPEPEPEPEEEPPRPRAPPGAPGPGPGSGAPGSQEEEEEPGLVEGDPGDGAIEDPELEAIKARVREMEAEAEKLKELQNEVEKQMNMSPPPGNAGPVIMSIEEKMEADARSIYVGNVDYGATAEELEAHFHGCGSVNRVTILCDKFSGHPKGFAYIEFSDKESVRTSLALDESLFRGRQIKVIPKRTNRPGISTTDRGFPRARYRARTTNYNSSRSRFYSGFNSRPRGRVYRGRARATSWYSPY

[4] = target: T4, PABPN1 point mutant V143A (UniProt Q86U42)
T4 sequence (looked up): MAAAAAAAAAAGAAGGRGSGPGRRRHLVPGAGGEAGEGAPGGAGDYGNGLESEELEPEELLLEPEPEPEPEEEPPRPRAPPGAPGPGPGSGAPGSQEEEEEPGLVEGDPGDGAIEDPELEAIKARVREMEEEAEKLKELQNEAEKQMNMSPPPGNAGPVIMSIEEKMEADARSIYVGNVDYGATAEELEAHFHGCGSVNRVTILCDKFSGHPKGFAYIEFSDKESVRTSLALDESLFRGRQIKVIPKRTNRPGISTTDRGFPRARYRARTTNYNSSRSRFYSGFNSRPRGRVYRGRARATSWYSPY

Measured: binding

B1: VHH 3F5 (VHH)
VHH: EVQLVESGGGLVQAGGSLRLSCAASGRTFSGYGMGWFRQAPGKEREFVAAISWRGGNTYYADSVKGRFTISRDNAKNTVWLQMNSLKPEDTAVYYCSGFVRTRDDPSRIRNYWGQGTQVTVST
binds: all assays above
